Data taken from PubChem BioAssay AID1224904, deposited by Broad Institute (2016).

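293T-iDUX4 cells carrying a ZSCAN4-driven Gaussia luciferase and a tet-on Italica luciferase control; the gap between the two luminescence signals is read after 24 h.
The test concentration is not given here.
Percent difference between the Gaussia and Italica channels; more negative values mean more selective suppression of the DUX4 reporter, and higher values mean less activity.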

Values are in %.
How 0% and 100% were set is not given here.
Common to all entries: measured here: selective DUX4 reporter inhibition.
This is a side read-out of the assay, for part of the compounds, not drawn at random.

SMILES | Gaussia minus Italica difference (%)
O=C(NC1CCCC1)[C@@H]1[C@@H](CO)[C@@H]2Cn3c(ccc(-c4ccccc4)c3=O)[C@@H]2N1CCc1ccccc1 | 1.1
O=C(Cc1ccccn1)N[C@@H]1CC[C@H](CCn2cc(-c3ccc(F)cc3)nn2)O[C@@H]1CO | 10.58
O=C(C[C@H]1CC[C@H]2[C@@H](COC[C@H](O)CN2C(=O)Nc2ccc(C(F)(F)F)cc2)O1)NCC1CCCCC1 | -0.9971
COc1ccc(-c2ccccc2[C@@H]2[C@@H](C#N)N(C(=O)NC3CCCCC3)[C@H]2CO)cc1 | 1.295
O=C(C[C@@H]1C=C[C@@H](NC(=O)c2cnccn2)[C@H](CO)O1)NCc1ccccc1F | -14.41
C[C@H](CO)N1C[C@H](C)[C@@H](CN(C)Cc2cccc(O)c2)OCc2ccccc2-c2c(n(C)c3ccccc23)C1=O | -13.37
COc1cccc(-c2ccc3c(c2)[C@@H]2[C@@H](CCN2C(=O)c2cccc(F)c2)[C@@H](CO)N3)c1 | 13.25
CO[C@H]1CN(C)C(=O)c2cc(NC(=O)Nc3ccc(Cl)c(Cl)c3)ccc2OC[C@@H](C)NC[C@@H]1C | 15.12
O=C(Nc1cc(F)ccc1F)N[C@@H]1CC[C@H](CC(=O)N2CCc3ccccc3C2)O[C@H]1CO | -0.2569
COc1ccccc1NC(=O)N1CCCCN2[C@H](C1)[C@@H](c1ccc(-c3ccc(C)cc3)cc1)[C@@H]2CO | -13.4
CC(C)NC(=O)N1CC[C@@H]2[C@H]1c1cc(C#Cc3cccnc3)ccc1N(C)[C@@H]2CO | -18.23
N#Cc1cccc(-c2ccc3c(c2)[C@@H]2[C@@H](CCN2C(=O)c2ccccc2F)[C@@H](CO)N3)c1 | 0.6575
COc1ccccc1NC(=O)N1C[C@@H](O)COC[C@H]2O[C@@H](CC(=O)N3CCC(Cc4ccccc4)CC3)CC[C@@H]21 | -1.56
O=C(NC1CCCC1)[C@H]1[C@H](CO)[C@H]2Cn3c(ccc(-c4ccccc4)c3=O)[C@H]2N1CCc1ccccc1 | 2.487
COc1ccc2c3c([nH]c2c1)[C@@H](CO)N(Cc1cccc(Cl)c1)CC31CCN(C(C)=O)CC1 | -22.95
COc1ccc(CN2CC3(CCN(C(=O)C4CCC4)CC3)c3c(n(C)c4cc(OC)ccc34)[C@@H]2CO)cc1 | -16.07
CC(C)CC#Cc1ccc([C@H]2[C@H](CO)N3CCCCN(C(=O)Nc4ccccc4)C[C@@H]23)cc1 | 7.593
O=C(C[C@H]1C[C@H]2c3cc(NC(=O)C4CCC4)ccc3O[C@H]2[C@H](CO)O1)NCc1ccc(Cl)cc1 | -2.834
C[C@@H](NC(=O)[C@@H]1N[C@@H]2c3ccc(C4=CCCC4)c(=O)n3C[C@@H]2[C@H]1CO)c1ccccc1 | -7.569
C[C@@H]1CN([C@@H](C)CO)C(=O)c2c(c3ccccc3n2C)-c2ccccc2CO[C@H]1CN(C)C(=O)Nc1cccc(C(F)(F)F)c1 | -11.84
CC(C)NC(=O)N1[C@@H](CO)[C@@H](c2ccccc2)C12CN(Cc1ccc(F)cc1)C2 | -5.167
C[C@@H]1CN([C@H](C)CO)C(=O)c2ccccc2-c2ccccc2CO[C@@H]1CN(C)S(=O)(=O)c1ccc(Cl)cc1 | 0.5533
CO[C@H](C(=O)N(C)C[C@@H]1OCc2ccccc2-c2c(n(C)c3ccccc23)C(=O)N([C@H](C)CO)C[C@H]1C)c1ccccc1 | -4.455
COc1cccc(C#Cc2ccc([C@@H]3[C@@H](CO)N4C(=O)CN(C(=O)Cc5ccccc5)C[C@@H]34)cc2)c1 | -13.02
N#Cc1cccc(-c2ccc3c(c2)[C@H]2[C@H](CCN2Cc2cncnc2)[C@H](CO)N3)c1 | 12.71
COc1ccccc1NC(=O)N[C@H]1CC[C@@H](CC(=O)N2CCC(Cc3ccccc3)CC2)O[C@H]1CO | -6.878
O=C(C[C@H]1CC[C@@H]2[C@H](COC[C@@H](O)CN2C(=O)Nc2ccc(Cl)c(Cl)c2)O1)NCc1ccc(Cl)c(Cl)c1 | 7.404
O=C(C[C@H]1CC[C@H]2[C@@H](COC[C@H](O)CN2S(=O)(=O)c2cccc(Cl)c2)O1)Nc1ccc(-c2ccccc2)cc1 | -1.68
C[C@@H]1CN([C@@H](C)CO)C(=O)c2c(c3ccccc3n2C)-c2ccccc2CO[C@H]1CN(C)S(=O)(=O)c1ccccc1F | -13.2
Cc1ccc(-c2ccc([C@H]3[C@@H](CO)N4C(=O)CN(C(=O)c5ccc(F)cc5)C[C@H]34)cc2)cc1 | -15.67
O=C(C[C@H]1CC[C@H]2[C@@H](COC[C@H](O)CN2C(=O)Nc2ccc(C(F)(F)F)cc2)O1)NC1Cc2ccccc2C1 | 10.08
O=C(c1ccc2c(c1)OCO2)N1CC[C@@H]2[C@@H](CO)Nc3ccc(-c4ccc(F)cc4)cc3[C@@H]21 | -7.736
COc1ccc2c3c(n(C)c2c1)[C@H](CO)NCC31CCN(C(=O)Nc2ccccc2F)CC1 | -5.088
Cc1ccc(S(=O)(=O)N(C)C[C@@H]2OCc3ccccc3-c3c(n(C)c4ccccc34)C(=O)N([C@@H](C)CO)C[C@@H]2C)cc1 | -7.662
O=C(C[C@H]1CC[C@H]2[C@@H](COC[C@@H](O)CN2C(=O)c2ccccc2)O1)Nc1ccc(-c2ccccc2)cc1 | -4.628
O=C(c1cccnc1)N1CC(=O)N2[C@H](CO)[C@@H](c3ccc(/C=C/c4ccccc4)cc3)[C@@H]2C1 | -3.906
O=C(c1ccc2c(c1)OCO2)N1CC[C@@H]2[C@H](CO)Nc3ccc(-c4ccc(F)cc4)cc3[C@@H]21 | -10.74
O=C(NCC1CC1)[C@H]1[C@H](CO)[C@H]2Cn3c(ccc(C4=CCCCC4)c3=O)[C@H]2N1Cc1ccccc1F | -5.02
C/C=C/c1ccc([C@H]2[C@H]3CN(S(=O)(=O)c4ccc(OC)cc4)CCCCN3[C@H]2CO)cc1 | -8.788
COc1ccc(C#Cc2ccc([C@H]3[C@@H](CO)N4CCCCN(C(=O)c5ccncc5)C[C@H]34)cc2)cc1 | -3.158
CN1c2ccc(-c3ccccc3F)cc2[C@H]2[C@H](CCN2C(=O)c2cccc(F)c2)[C@H]1CO | -9.342
O=C(C[C@@H]1C[C@@H]2c3cc(NC(=O)c4ccc5c(c4)OCO5)ccc3O[C@@H]2[C@H](CO)O1)NCc1ccc(Oc2ccccc2)cc1 | 15.5
CCS(=O)(=O)N1CC2(CN(Cc3cc(F)ccc3F)[C@H](CO)c3c2c2ccc(OC)cc2n3C)C1 | -20.46
C[C@@H]1CN([C@H](C)CO)C(=O)c2c(c3ccccc3n2C)-c2ccccc2CO[C@@H]1CN(C)CC1CCCCC1 | -19.85
Cc1ccc(S(=O)(=O)N(C)C[C@@H]2OCc3ccccc3-c3c(n(C)c4ccccc34)C(=O)N([C@H](C)CO)C[C@@H]2C)cc1 | 7.987
O=C(C[C@H]1C[C@H]2c3cc(NC(=O)c4ccc5c(c4)OCO5)ccc3O[C@H]2[C@H](CO)O1)NCc1ccccn1 | -14.02
O=C(Nc1ccc(F)cc1)N1CC(=O)N2[C@H](CO)[C@@H](c3ccc(C#Cc4cccnc4)cc3)[C@@H]2C1 | -22.59
O=C(C1CCCCC1)N1C[C@@H]2N[C@H](C1)C2c1ccc(-c2ccccc2F)cc1 (stereo partly shown) | -19.74
O=C(CCN1CCCCC1)N[C@@H]1CC[C@@H](CC(=O)N2CCC(Cc3ccccc3)CC2)O[C@H]1CO | -18.13
CO[C@H]1CN(C)C(=O)c2ccc(NC(=O)c3nc4ccccc4s3)cc2OC[C@@H](C)N(Cc2cccnc2)C[C@@H]1C | -2.561
N#C[C@@H]1[C@@H](c2ccc(C#Cc3cccc(F)c3)cc2)[C@@H](CO)N1C(=O)C1CC1 | 6.742
COc1cccc(S(=O)(=O)Nc2ccc3c(c2)C(=O)N(C)C[C@H](OC)[C@H](C)CN(Cc2ccccc2F)[C@H](C)CO3)c1 | -10.05
C/C=C/c1ccc([C@@H]2[C@H](CO)N3C(=O)CN(C(=O)Nc4ccccc4F)C[C@@H]23)cc1 | -17.16
COCC(=O)N1CC(=O)N2[C@H](CO)[C@H](c3ccc(C#Cc4cccnc4)cc3)[C@@H]2C1 | -24.92
O=C(c1ccc2c(c1)OCO2)N1CC(=O)N2[C@H](CO)[C@@H](c3ccc(C#CCC4CCCC4)cc3)[C@H]2C1 | -8.771
O=C(C[C@@H]1CC[C@H]2[C@@H](COC[C@H](O)CN2CCC(F)(F)F)O1)NCc1ccc(Oc2ccccc2)cc1 | -12.22
COc1cccc(CN2[C@H](CO)[C@@H](c3ccccc3)C23CN(Cc2ccccc2)C3)c1 | -5.316

4 of the entries, repeated:

SMILES,Gaussia minus Italica difference (%)
O=C(C[C@H]1CC[C@@H]2[C@H](COC[C@@H](O)CN2C(=O)Nc2ccc(Cl)c(Cl)c2)O1)NCc1ccc(Cl)c(Cl)c1,7.404
COc1ccc(-c2ccccc2[C@@H]2[C@@H](C#N)N(C(=O)NC3CCCCC3)[C@H]2CO)cc1,1.295
O=C(CCN1CCCCC1)N[C@@H]1CC[C@@H](CC(=O)N2CCC(Cc3ccccc3)CC2)O[C@H]1CO,-18.13
C[C@@H]1CN([C@@H](C)CO)C(=O)c2c(c3ccccc3n2C)-c2ccccc2CO[C@H]1CN(C)S(=O)(=O)c1ccccc1F,-13.2